Measured values published in paper PMC7819943, “Rice protein-binding microarrays: a tool to detect cis-acting elements near promoter regions in rice”.
The other results are listed elsewhere or left out.

Target: T1, OsSMF1 (Oryza sativa, UniProt Q6ZLB0 1-436)
T1 sequence: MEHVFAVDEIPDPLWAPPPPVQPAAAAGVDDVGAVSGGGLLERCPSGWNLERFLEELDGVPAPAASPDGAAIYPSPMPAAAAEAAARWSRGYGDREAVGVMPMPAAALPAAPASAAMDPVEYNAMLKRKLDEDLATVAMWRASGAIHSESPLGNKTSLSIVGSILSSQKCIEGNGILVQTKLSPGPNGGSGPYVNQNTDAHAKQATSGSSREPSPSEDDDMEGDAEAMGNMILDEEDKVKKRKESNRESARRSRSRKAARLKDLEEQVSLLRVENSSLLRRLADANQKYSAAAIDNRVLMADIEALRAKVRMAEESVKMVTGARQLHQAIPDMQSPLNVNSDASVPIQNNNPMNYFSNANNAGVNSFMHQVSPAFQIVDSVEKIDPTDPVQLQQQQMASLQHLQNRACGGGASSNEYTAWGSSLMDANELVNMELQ
Assay: protein-binding microarray (RPBM); PBS, 2% BSA, 51.3 ng/ul salmon testes DNA, 50 uM zinc acetate, 200 nM TF, 25 C, 1 h; high values mean tight binding
Conditions: protein: recombinant; tags: N-terminal polyhistidine and DsRed monomer fusion (pET32a); chain copies: 2; label: CyDye5-dUTP incorporated in the synthesized complementary strand; 3' TTTTT single-stranded linker to array surface; dsDNA, one strand shown
Outline: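 Per-feature fluorescence intensity (arbitrary units), read on an Axon 4000B scanner, is the binding signal. Transcription factors carrying an N-terminal polyhistidine tag and DsRed fusion were expressed in E. coli BL21-CodonPlus and purified on Ni–NTA. A custom Agilent array, made double-stranded by primer extension with Cy5-dUTP and blocked with 2% BSA, was incubated with 200 nM protein in PBS, 2% BSA, salmon testes DNA and 50 µM zinc acetate at 25 °C for 1 h and then washed.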

| Sequence | binding signal |
| --- | --- |
| AGTTTTGCTATTATGCCACCGCCGCCACGCTTTTGCTGATCGGAGTCACCTAGTGCAG | 3560 fluorescence intensity (a.u.) |
| ACTACAAGCCACGAATGTGACGGAAGCTTCTACTACTCGCCGGAGTCACCTAGTGCAG | 3710 fluorescence intensity (a.u.) |
| TCAAGAAAACATGCACACCGTGCACACGTACGAAGCCGGTCGGAGTCACCTAGTGCAG | 3270 fluorescence intensity (a.u.) |
| ACAAACAGTACGACGTGACGTGGCAAAGTATCGTCCATCACGGAGTCACCTAGTGCAG | 20800 fluorescence intensity (a.u.) |
| TTATCAACCAAACCTCACGGTTGCATCACCCAGGATGTGTCGGAGTCACCTAGTGCAG | 4540 fluorescence intensity (a.u.) |
| AGCAAGCAATTGCACATCACTCGACAGTCCACACAGTGCACGGAGTCACCTAGTGCAG | 3620 fluorescence intensity (a.u.) |
| TTGTGGTCCTGTCGTCATCCTGTGGAGTTGTGGTGAGTGTCGGAGTCACCTAGTGCAG | 4280 fluorescence intensity (a.u.) |
| TCCCGACGTGCGTCATCAAGGTGTACCACGCCGCGAGATCCGGAGTCACCTAGTGCAG | 5280 fluorescence intensity (a.u.) |
| GGGCTGCTGGTTTCCAAGGATAATAAACGCACGACGACCCCGGAGTCACCTAGTGCAG | 3430 fluorescence intensity (a.u.) |
| GTGCGAGATCTAGCTAGCTATACGGAGTTGTGTGACAGTCCGGAGTCACCTAGTGCAG | 17800 fluorescence intensity (a.u.) |
| GAGGCAAAACGGCAGACGTGTGCACGTATCACGGTGATAGCGGAGTCACCTAGTGCAG | 7200 fluorescence intensity (a.u.) |
| TTTGCATCTCGATGAGTTGTACAACTTTGATTTTGGTGACCGGAGTCACCTAGTGCAG | 3860 fluorescence intensity (a.u.) |
| AATAAAGGTCACATCCACGTTGACAAGTCAGAAAAGGGTACGGAGTCACCTAGTGCAG | 6520 fluorescence intensity (a.u.) |
| CGTATCTCATCTTTTCGTTTATACTTATACTTATCAGTCACGGAGTCACCTAGTGCAG | 3230 fluorescence intensity (a.u.) |
| TATCATACAAATGACGACACCACACAAACGGCGGCCCAAGCGGAGTCACCTAGTGCAG | 4320 fluorescence intensity (a.u.) |
| TGGTTCATCACGTCAGTGTCTTACGGCTGCAGACTGCGCCCGGAGTCACCTAGTGCAG | 4960 fluorescence intensity (a.u.) |
| CAGATTCAGCTCATCACTTCAAAATCATAGGCTTAAAGCGCGGAGTCACCTAGTGCAG | 5570 fluorescence intensity (a.u.) |
| CTCACTCAAACTTGTCCACGTATGTGAATAGCCGAATCAGCGGAGTCACCTAGTGCAG | 6780 fluorescence intensity (a.u.) |
| CTGGCTTGCAACTACTACCCGTTAAGACCACGCGCGCCTCCGGAGTCACCTAGTGCAG | 3280 fluorescence intensity (a.u.) |
| GCCGGCCGCTCATCGGGATGGCGCGGCGGAGGCGGTGGGGCGGAGTCACCTAGTGCAG | 4890 fluorescence intensity (a.u.) |
| CTTCAGTCCTTTTCCATCACATCAACCTGTCATACACACACGGAGTCACCTAGTGCAG | 3470 fluorescence intensity (a.u.) |

| Sequence | binding signal |
| --- | --- |
| TCCCAGGGGTATTTTGGTCATTTGGATAAAATTATATAGTCGGAGTCACCTAGTGCAG | 3270 fluorescence intensity (a.u.) |
| AGCTCTCTGTCGCTGTTCGGGAGTGCGCATTCTGTTTGCCCGGAGTCACCTAGTGCAG | 34600 fluorescence intensity (a.u.) |
| TTTTAATCCGAGTTTCAGACCACGATGGCCATTTGTTTCGCGGAGTCACCTAGTGCAG | 3460 fluorescence intensity (a.u.) |
| AGCAAATTTTGCCATGTCACATCGACATCATCCCGGCACGCGGAGTCACCTAGTGCAG | 13600 fluorescence intensity (a.u.) |
| ATCAACTGATCCTGACTCCGTTACCACCCGGCATATTGTTCGGAGTCACCTAGTGCAG | 4000 fluorescence intensity (a.u.) |
| GAGGAGGCGTCGGCGTCACGGCGGACAGCGATGGGGTGCGCGGAGTCACCTAGTGCAG | 3320 fluorescence intensity (a.u.) |
| CTATTGGGCTTGCAAGCACACGCTGACGTACTTTGCGCCACGGAGTCACCTAGTGCAG | 5160 fluorescence intensity (a.u.) |
| GACTCCACCAAGAACACAACTGCTGACGATTTGACGACTCCGGAGTCACCTAGTGCAG | 3380 fluorescence intensity (a.u.) |
| CCATTGGGCCATGTGGCCCGTAACAGCAGCCTTGTTTCGACGGAGTCACCTAGTGCAG | 3840 fluorescence intensity (a.u.) |
| GTACTGCAGAGGATCTCAATTGTCCAAAGAGATATGTACACGGAGTCACCTAGTGCAG | 3210 fluorescence intensity (a.u.) |
| TTGCCCAAGAGCTGACCCAACTCATTAAAATTACGCTTCTCGGAGTCACCTAGTGCAG | 3190 fluorescence intensity (a.u.) |
| GCTAAGAGGCCCGCTGCCACGCCACCCCGGCCACCTCAGCCGGAGTCACCTAGTGCAG | 14000 fluorescence intensity (a.u.) |
| GTGGCCGATGCTGACGACCTCCGCGATGAACTCCTTCATCCGGAGTCACCTAGTGCAG | 3170 fluorescence intensity (a.u.) |
| TTTATAGGATTTCTTATATAGATACCAAAATTTGACAGAACGGAGTCACCTAGTGCAG | 35700 fluorescence intensity (a.u.) |
| AGGGAAGGGTAATATATGTCAATTTGTGATTATACTGTTTCGGAGTCACCTAGTGCAG | 3140 fluorescence intensity (a.u.) |
| GCTGGTTTGGATTTCTCAGCTCAGCACCAAGCTGATGACGCGGAGTCACCTAGTGCAG | 4780 fluorescence intensity (a.u.) |
| AATGATAAGGTTTGATATTTTAAAGTCTTAAGAAAACGAGCGGAGTCACCTAGTGCAG | 3200 fluorescence intensity (a.u.) |
| AATATAGAAGGTACACTCCATTTGCACACTAGGTACAGAACGGAGTCACCTAGTGCAG | 6080 fluorescence intensity (a.u.) |
| TCTTCCTCATCGGCCGCGGGGCCGACGCGCTCACCGGCGTCGGAGTCACCTAGTGCAG | 3290 fluorescence intensity (a.u.) |
| CCCTCGCCTTCTCCGATTTCCCTCGCGTGGAATCCCCTTGCGGAGTCACCTAGTGCAG | 3140 fluorescence intensity (a.u.) |
| ACACCATGCGTATGATGCAATACCTATTGACTCCATTGAACGGAGTCACCTAGTGCAG | 3380 fluorescence intensity (a.u.) |

Part of the list above, field by field.
AATAAAGGTCACATCCACGTTGACAAGTCAGAAAAGGGTACGGAGTCACCTAGTGCAG
  binding signal: 6520 fluorescence intensity (a.u.)
CGTATCTCATCTTTTCGTTTATACTTATACTTATCAGTCACGGAGTCACCTAGTGCAG
  binding signal: 3230 fluorescence intensity (a.u.)
